The test has as its system BDF1 mice, P388 leukemia ip, median survival T/C. Kind of test: NCI In Vivo Anticancer Drug Screen. Data for tumor model P388 Leukemia (intraperitoneal) in B6D2F1 (BDF1) mice. The following applies: T/C endpoint: median survival time, higher T/C = longer survival. As for the experimental part: The antitumor activity of compounds was measured in mice bearing transplantable tumors. Survival or tumor size were measured and the results are expressed as the measurement made in the treated group (T) divided by the measurement made in the vehicle treated control group (C). The tumor model used in this assay is P388 Leukemia (intraperitoneal) in B6D2F1 (BDF1) mice

The mark [1] stands for this setting: dose: 21.0 mg/kg/injection, schedule: Q01DX009 (ip), vehicle: saline.
Setting [2] is: dose: 100.0 mg/kg/injection, schedule: Q04DX003 (ip), vehicle: saline with Tween-80.
Where [3] appears, read: dose: 200.0 mg/kg/injection, schedule: Q04DX003 (ip), vehicle: saline with Tween-80.
The mark [4] stands for this setting: dose: 400.0 mg/kg/injection, schedule: Q04DX003 (ip), vehicle: saline with Tween-80.
The mark [5] stands for this setting: dose: 6.25 mg/kg/injection, schedule: Q01DX009 (ip), vehicle: saline with Tween-80.
Where [6] appears, read: dose: 0.5 mg/kg/injection, schedule: Q01DX009 (ip), vehicle: saline.
Setting [7] is: dose: 100.0 mg/kg/injection, schedule: Q01DX009 (ip), vehicle: saline with Tween-80.

SMILES strings stand for the structures. The list is a part of this screen's results and no random one: it is rich in T/C values a quarter to a half above the control, in often repeated tests (any T/C) and in doses without a T/C. Other doses and runs of a compound stand elsewhere. T/C gives the treated animals as a percentage of the vehicle group. Some entries give survivors of the animals treated and no T/C: the source files T/C as zero there, which appears to mark a toxic dose or a test without result, not a measured value. Some survivor counts are full or nearly so, which does not show that the dose was tolerated: survival well below the control is almost never listed, so the zero probably covers shortened survival too. Survivors were counted at the toxicity check, usually on the fifth day, unless a day is given; later deaths do not show. Schedules are NCI's codes, read here as Q, the interval in days (D) or hours (H), X, the number of doses. For survival time, this PubChem deposit counts one and a half times the control or more as active, and values a quarter to a half above the control carry no call in these data; other NCI protocols may use other cut-offs. Some entries hold several experiments; the values are given in rising order. Some T/C values carry the count of animals alive at the toxicity check (mostly the fifth day); where none is given, no animal had died by that day.

`CCC1CN2CCc3cc(O)c(O)cc3C2CC1CC1NCCc2c1[nH]c1ccc(O)cc21` (stereo not drawn): the T/C (dose: 0.25 mg/kg/injection, schedule: Q01DX009 (ip), vehicle: Klucel (hydroxypropylcellulose) (HPC)) is 139 % of control and the T/C (dose: 0.5 mg/kg/injection, schedule: Q01DX009 (ip), vehicle: Klucel (hydroxypropylcellulose) (HPC)) was 139 % of control.
Take `c1ccc(CN2CCn3nccc32)cc1`: for the setting “dose: 200.0 mg/kg/injection, schedule: Q01DX009 (ip), vehicle: other”, the survivor count was 6 of 6.
Regarding `CCCCCCCCCCCC[N+](C)(C)C` (tested in a mixture with another compound), the T/C runs as follows: (dose: 7.0 mg/kg/injection, schedule: Q01DX009 (ip), vehicle: saline) 142 % of control; (dose: 9.2 mg/kg/injection, schedule: Q01DX009 (ip), vehicle: saline) 131 % of control [5 of 6 alive]; (dose: 14.0 mg/kg/injection, schedule: Q01DX009 (ip), vehicle: saline) 136 % of control; under setting [1], 136 % of control [5 of 6 alive]. Further, the survivor count runs as follows: under setting [1], 2 of 6; (dose: 28.0 mg/kg/injection, schedule: Q01DX009 (ip), vehicle: saline) 2 of 6.
On to `CCOc1cc(C=Nc2cc(Cl)c(O)c(Cl)c2)ccc1N(CCCl)CCCl`, for which the T/C (dose: 11.0 mg/kg/injection, schedule: Q04DX003 (ip), vehicle: saline with Tween-80) is 129 % of control. For the same compound, the survivor count is reported as 5 of 6 under setting [2], 0 of 6 under setting [3] and 0 of 6 under setting [4].
Regarding `O=C(c1ccccc1)N1CC1`, the survivor count is, setting by setting: (dose: 12.5 mg/kg/injection, schedule: Q01DX009 (ip), vehicle: water) 6 of 6; (dose: 100.0 mg/kg/injection, schedule: Q01DX009 (ip), vehicle: water) 6 of 6; (dose: 200.0 mg/kg/injection, schedule: Q01DX009 (ip), vehicle: water) 5 of 6. Also, where the note is “dose: 50.0 mg/kg/injection, schedule: Q01DX009 (ip), vehicle: water”, the T/C was 126 % of control.
For the compound `CCCC(Sc1nc(N)nc2nc[nH]c12)C(=O)O` (stereo not drawn), where the note is “dose: 200.0 mg/kg/injection, schedule: Q01DX009 (ip), vehicle: saline sonified”, the T/C was 140 % of control.
Take `CN(C)N=Nc1ccc(CCCC(=O)NN)cc1`: the T/C (dose: 3.0 mg/kg/injection, schedule: Q01DX009 (ip), vehicle: saline with Tween-80) is 125 % of control; the T/C (dose: 3.13 mg/kg/injection, schedule: Q01DX009 (ip), vehicle: saline with Tween-80) is 136 % of control; the T/C (dose: 4.5 mg/kg/injection, schedule: Q01DX009 (ip), vehicle: saline with Tween-80) is 140 % of control; the T/C under setting [5] was 136 % of control. Besides, the survivor count is recorded as 5 of 6 under setting [5]; 6 of 6 (dose: 12.5 mg/kg/injection, schedule: Q01DX009 (ip), vehicle: saline with Tween-80); 5 of 6 (dose: 50.0 mg/kg/injection, schedule: Q01DX009 (ip), vehicle: saline with Tween-80); 6 of 6 (dose: 200.0 mg/kg/injection, schedule: Q01DX009 (ip), vehicle: saline with Tween-80).
As for `CCCCCc1cc(/C=C2/N=C(c3ccc[nH]3)C=C2OC)[nH]c1C`, the survivor count (dose: 4.0 mg/kg/injection, schedule: Q01DX009 (ip), vehicle: other) is reported as 3 of 3.
Consider `CC1(C)N=C(N)N=C(N)N1c1ccc(CCCCc2ccc(S(=O)(=O)F)cc2)c(Cl)c1`, for which the T/C (dose: 0.22 mg/kg/injection, schedule: Q01DX009 (ip), vehicle: saline) was 128 % of control; the T/C (dose: 0.33 mg/kg/injection, schedule: Q01DX009 (ip), vehicle: saline) was 130 % of control; the T/C under setting [6] is 145 % of control; the T/C (dose: 0.66 mg/kg/injection, schedule: Q01DX009 (ip), vehicle: saline) was 146 % of control; the T/C (dose: 22.0 mg/kg/injection, schedule: Q04DX003 (ip), vehicle: saline) was 127 and 141 % of control; the T/C (dose: 25.0 mg/kg/injection, schedule: Q04DX003 (ip), vehicle: saline) is 127 % of control. For the same compound, the T/C runs as follows: (dose: 33.0 mg/kg/injection, schedule: Q04DX003 (ip), vehicle: saline) 133 and 136 % of control; (dose: 50.0 mg/kg/injection, schedule: Q04DX003 (ip), vehicle: saline) 136 and 145 % of control; (dose: 75.0 mg/kg/injection, schedule: Q04DX003 (ip), vehicle: saline) 127 % of control. Moreover, the survivor count (dose: 4.4 mg/kg/injection, schedule: Q01DX009 (ip), vehicle: saline) is recorded as 6 of 6; the survivor count (dose: 6.6 mg/kg/injection, schedule: Q01DX009 (ip), vehicle: saline) was 6 of 6; the survivor count (dose: 10.0 mg/kg/injection, schedule: Q01DX009 (ip), vehicle: saline) was 6 of 6; the survivor count (dose: 15.0 mg/kg/injection, schedule: Q01DX009 (ip), vehicle: saline) was 6 of 6; the survivor count (dose: 75.0 mg/kg/injection, schedule: Q01DX009 (ip), vehicle: saline) is on record as 6 of 6.
On to `CN1CCC2=C(C1)C(N1CCCC1)CS(=O)(=O)O2` (stereo not drawn), for which the survivor count is 6 of 6 (dose: 100.0 mg/kg/injection, schedule: Q04DX002 (ip), vehicle: saline with Tween-80); 0 of 6 (dose: 200.0 mg/kg/injection, schedule: Q04DX002 (ip), vehicle: saline with Tween-80); 0 of 6 (dose: 400.0 mg/kg/injection, schedule: Q04DX002 (ip), vehicle: saline with Tween-80).
For `CC(C)(CCC(C)(C)NCCC#N)NCCC#N`, the T/C (dose: 100.0 mg/kg/injection, schedule: Q01DX009 (ip), vehicle: saline) was 128 % of control [5 of 6 alive].
For the compound `C=C1[C@@H](O)[C@]2(O)OC[C@@]34[C@H]1[C@@H](OC(=O)C(C)CC)C(=O)O[C@@H]3C[C@H]1C(C)=CC(=O)[C@@H](O)[C@]1(C)[C@@H]24` (stereo partly drawn), the T/C (dose: 0.06 mg/kg/injection, schedule: Q01DX009 (ip), vehicle: saline with Tween-80) was 125 % of control [5 of 6 alive]; the T/C (dose: 0.12 mg/kg/injection, schedule: Q01DX009 (ip), vehicle: saline with Tween-80) was 141 % of control; the T/C (dose: 0.25 mg/kg/injection, schedule: Q01DX009 (ip), vehicle: saline with Tween-80) was 148 % of control [5 of 6 alive]; the T/C under setting [6] was 134 % of control; the T/C (dose: 2.0 mg/kg/injection, schedule: Q01DX009 (ip), vehicle: saline) was 145 % of control; the T/C (dose: 8.0 mg/kg/injection, schedule: Q01DX009 (ip), vehicle: saline with Tween-80) was 148 % of control [4 of 6 alive]. Besides, the survivor count (dose: 4.0 mg/kg/injection, schedule: Q01DX009 (ip), vehicle: saline with Tween-80) is on record as 3 of 6.
With `COc1ccc(/C=C/C(=O)c2ccc(Cl)cc2)c(OC)c1`, the survivor count under setting [7] was 6 of 6.
As for `N#Cc1cn(C2OC(CO)C(O)C2O)c2ncnc(N)c12` (stereo not drawn), the survivor count was 6 of 6 (dose: 0.75 mg/kg/injection, schedule: Q01DX009 (ip), vehicle: other); 6 of 6 (dose: 1.5 mg/kg/injection, schedule: Q01DX009 (ip), vehicle: other); 4 of 6 (dose: 3.0 mg/kg/injection, schedule: Q01DX009 (ip), vehicle: other); 0 of 6 under setting [2]; 0 of 6 under setting [3]; 0 of 6 under setting [4].
As for `c1ccc(CN2C3Oc4ccccc4C2Oc2ccccc23)cc1`, the survivor count under setting [7] is reported as 6 of 6.
In the case of `CC(C)(C)C1CCC(C#N)(N=Nc2ccccc2)CC1` (stereo not drawn), the survivor count (dose: 200.0 mg/kg/injection, schedule: Q01DX005 (ip), vehicle: saline with Tween-80) is on record as 0 of 6.
In the case of `OC(CCl)Cc1ccccc1` (stereo not drawn), under setting [7], the survivor count was 4 of 6.
For the compound `CCOc1nc(SCC)ncc1C`, the survivor count (dose: 400.0 mg/kg/injection, schedule: Q01DX009 (ip), vehicle: water) is 0 of 6.

(Values after PubChem BioAssay AID328 (DTP/NCI, 2004).)
